Results taken from the supplement of paper PMC10470496.
Counter-ions that a name gives are not always drawn. This is one part of the list. Many values rest on one well or one pass, so single values are uncertain.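 Three clinical Candida auris isolates (clades III, IV and I) from the CDC resistance isolate bank were grown in RPMI-1640 at 35°C. Growth was background-corrected OD600 relative to same-plate vehicle-only wells. Hits required over 50% inhibition in at least two strains and a plate-corrected B-score above 0.1.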

Legend:
Test in all cases: growth relative to vehicle control (OD600 ratio) (fraction); higher = less inhibition
Conditions in all cases: 24 h
[1] = system: C. auris AR-384
[2] = system: C. auris AR-386
[3] = system: C. auris AR-387

Structure (SMILES) | growth ([1]; 1 µM) | growth ([1]; 10 µM) | growth ([2]; 1 µM) | growth ([2]; 10 µM) | growth ([3]; 1 µM) | growth ([3]; 10 µM)
COc1cc2nccc(Oc3ccc(NC(=O)NC4CC4)c(Cl)c3)c2cc1C(N)=O [Lenvatinib (E7080)] | 1.11 | 0.86 | 1.61 | 1.27 | 1.21 | 1.53
CN1C(CCl)Nc2cc(Cl)c(S(N)(=O)=O)cc2S1(=O)=O (stereo not given) [Methyclothiazide] | 0.93 | 0.64 | 0.86 | 0.67 | 0.71 | 0.83
NS(=O)(=O)c1cc2c(cc1Cl)NC(C(Cl)Cl)NS2(=O)=O (stereo not given) [Trichlormethiazide] | 1 | 0.58 | 1.11 | 1.47 | 1.02 | 1
Cn1c(=O)c2nc[nH]c2n(C)c1=O [Theophylline] | 1.1 | 0.74 | 0.95 | 1.17 | 1.13 | 0.93
COc1ccc([C@@H]2Sc3ccccc3N(CCN(C)C)C(=O)[C@@H]2OC(C)=O)cc1 [Diltiazem HCl] | 0.85 | 0.91 | 1.04 | 1.18 | 0.96 | 0.85
CNS(=O)(=O)CCc1ccc2[nH]cc(C3CCN(C)CC3)c2c1 [Naratriptan HCl] | 1.32 | 0.77 | 0.91 | 0.99 | 0.97 | 0.93
O=C(O)C1=C(CSc2nnnn2CS(=O)(=O)O)CS[C@@H]2[C@H](NC(=O)[C@H](O)c3ccccc3)C(=O)N12 [Cefonicid sodium] | 1.22 | 0.95 | 1.26 | 0.76 | 0.94 | 0.87
C[C@]12CC[C@H](O)CC1=CC[C@@H]1[C@@H]2CC[C@]2(C)C(n3cnc4ccccc43)=CC[C@@H]12 [Galeterone] | 0.9 | 0.84 | 0.67 | 0.72 | 0.82 | 1.03
Cc1ccc(NC(=O)c2ccc(CN3CC[C@H](N(C)C)C3)c(C(F)(F)F)c2)cc1Nc1nccc(-c2cncnc2)n1 [Bafetinib (INNO-406)] | 1.06 | 1.42 | 1.42 | 0.99 | 0.85 | 0.83
Cc1cnc(Nc2ccc(OCCN3CCCC3)cc2)nc1Nc1cccc(S(=O)(=O)NC(C)(C)C)c1 | 0.73 | 0.78 | 0.82 | 0.84 | 0.7 | 0.91
CCN(CC)CCCC(C)Nc1ccnc2cc(Cl)ccc12 (stereo not given) [Chloroquine Phosphate] | 1.04 | 1 | 0.75 | 0.88 | 0.89 | 0.92
Nc1nc(F)nc2c1ncn2[C@@H]1O[C@H](CO)[C@@H](O)[C@@H]1O [Fludarabine] | 0.52 | 0.42 | 0.62 | 0.62 | 0.7 | 0.68
COC(=O)N[C@H](C(=O)N[C@@H](Cc1ccccc1)[C@@H](O)CN(Cc1ccc(-c2ccccn2)cc1)NC(=O)[C@@H](NC(=O)OC)C(C)(C)C)C(C)(C)C [Atazanavir Sulfate] | 0.55 | 0.58 | 0.53 | 0.86 | 0.67 | 0.67
Cc1cc(C)c2c(c1)[C@@H](N(Cc1cc(C(F)(F)F)cc(C(F)(F)F)c1)c1nnn(C)n1)CCCN2C[C@H]1CC[C@H](C(=O)O)CC1 | 0.81 | 0.92 | 0.69 | 0.59 | 0.58 | 0.79
OC[C@@H](O)[C@@H](O)[C@H](O)[C@@H](O)CO [Sorbitol] | 0.98 | 0.82 | 1.05 | 1.11 | 1.09 | 0.88
O=C(Nc1cccc2c(=O)cc(-c3nnn[nH]3)oc12)c1ccc(OCCCCc2ccccc2)cc1 [Pranlukast] | 0.67 | 0.75 | 0.78 | 0.78 | 0.99 | 0.79
CCOC(=O)c1ccc(C#Cc2ccc3c(c2)C(C)(C)CCS3)nc1 [Tazarotene] | 1.34 | 1.14 | 0.98 | 0.98 | 0.97 | 1
CCOC(=O)c1c(C)n(C)c2ccc(O)cc12 [Mecarbinate] | 0.99 | 0.8 | 0.94 | 1.14 | 1.04 | 1.1
Nc1nc(N)c2nc(-c3ccccc3)c(N)nc2n1 [Triamterene] | 1.09 | 1.26 | 1.43 | 1.32 | 1.6 | 1.24
CC(C)CN(C[C@@H](O)[C@H](Cc1ccccc1)NC(=O)O[C@H]1CCOC1)S(=O)(=O)c1ccc(N)cc1 [Amprenavir] | 0.74 | 0.52 | 0.57 | 1.06 | 0.69 | 0.74
COc1ccc(CN2CCN(C(c3ccc(F)cc3)c3ccc(F)cc3)CC2)c(OC)c1OC [Lomerizine 2HCl] | 1 | 0.95 | 1.15 | 0.66 | 0.91 | 0.65
CCCCNC(=O)NS(=O)(=O)c1ccc(C)cc1 [Tolbutamide] | 1.05 | 1.2 | 1.09 | 1.11 | 1.43 | 1.29
CN(C)CCC=C1c2ccccc2CCc2ccccc21 [Amitriptyline HCl] | 0.94 | 0.94 | 0.97 | 0.88 | 1.1 | 1.09

Filtered by structure, those above containing a carbonyl joined to an NH by a bond outside any ring
Structure (SMILES) | growth ([1]; 1 µM) | growth ([1]; 10 µM) | growth ([2]; 1 µM) | growth ([2]; 10 µM) | growth ([3]; 1 µM) | growth ([3]; 10 µM)
COc1cc2nccc(Oc3ccc(NC(=O)NC4CC4)c(Cl)c3)c2cc1C(N)=O [Lenvatinib (E7080)] | 1.11 | 0.86 | 1.61 | 1.27 | 1.21 | 1.53
O=C(O)C1=C(CSc2nnnn2CS(=O)(=O)O)CS[C@@H]2[C@H](NC(=O)[C@H](O)c3ccccc3)C(=O)N12 [Cefonicid sodium] | 1.22 | 0.95 | 1.26 | 0.76 | 0.94 | 0.87
Cc1ccc(NC(=O)c2ccc(CN3CC[C@H](N(C)C)C3)c(C(F)(F)F)c2)cc1Nc1nccc(-c2cncnc2)n1 [Bafetinib (INNO-406)] | 1.06 | 1.42 | 1.42 | 0.99 | 0.85 | 0.83
COC(=O)N[C@H](C(=O)N[C@@H](Cc1ccccc1)[C@@H](O)CN(Cc1ccc(-c2ccccn2)cc1)NC(=O)[C@@H](NC(=O)OC)C(C)(C)C)C(C)(C)C [Atazanavir Sulfate] | 0.55 | 0.58 | 0.53 | 0.86 | 0.67 | 0.67
O=C(Nc1cccc2c(=O)cc(-c3nnn[nH]3)oc12)c1ccc(OCCCCc2ccccc2)cc1 [Pranlukast] | 0.67 | 0.75 | 0.78 | 0.78 | 0.99 | 0.79
CC(C)CN(C[C@@H](O)[C@H](Cc1ccccc1)NC(=O)O[C@H]1CCOC1)S(=O)(=O)c1ccc(N)cc1 [Amprenavir] | 0.74 | 0.52 | 0.57 | 1.06 | 0.69 | 0.74
CCCCNC(=O)NS(=O)(=O)c1ccc(C)cc1 [Tolbutamide] | 1.05 | 1.2 | 1.09 | 1.11 | 1.43 | 1.29

The list goes on.

Structure (SMILES) | growth ([1]; 1 µM) | growth ([1]; 10 µM) | growth ([2]; 1 µM) | growth ([2]; 10 µM) | growth ([3]; 1 µM) | growth ([3]; 10 µM)
C[C@H]1O[C@H](O[C@H]2[C@H](O)[C@@H](O)[C@@H](O[C@H]3[C@H](O)[C@@H](O)C(O)O[C@@H]3CO)O[C@@H]2CO)[C@H](O)[C@@H](O)[C@@H]1N[C@H]1C=C(CO)[C@@H](O)[C@H](O)[C@H]1O (stereo not given in full) [Acarbose] | 0.97 | 0.83 | 1.16 | 0.87 | 0.93 | 0.87
Nc1ncn([C@@H]2O[C@H](CO)[C@@H](O)[C@H]2O)c(=O)n1 [Azacitidine] | 0.95 | 0.8 | 0.65 | 0.75 | 0.76 | 0.96
COC[C@H]1C[C@@H](c2nc(-c3ccc4c(c3)COc3cc5c(ccc6nc([C@@H]7CC[C@H](C)N7C(=O)[C@@H](NC(=O)OC)C(C)C)[nH]c65)cc3-4)c[nH]2)N(C(=O)[C@H](NC(=O)OC)c2ccccc2)C1 [Velpatasvir] | 0.94 | 1.12 | 0.74 | 0.82 | 0.74 | 0.8
C[C@@H]1C[C@H]2[C@@H]3CCC4=CC(=O)C=C[C@]4(C)[C@@]3(Cl)[C@@H](O)C[C@]2(C)[C@@]1(OC(=O)c1ccco1)C(=O)CCl [Mometasone furoate] | 0.82 | 0.79 | 0.66 | 0.8 | 0.6 | 0.88
Cc1cc(Nc2cc(CN3CCOCC3)c3nc(C)c(Cc4ccc(Cl)cc4F)n3n2)n[nH]1 | 0.94 | 0.87 | 0.85 | 0.96 | 0.97 | 0.8
C[C@H](Oc1cc(-c2cnn(C3CCNCC3)c2)cnc1N)c1c(Cl)ccc(F)c1Cl [(S)-crizotinib] | 1.15 | 0.93 | 1.09 | 1.11 | 0.76 | 1.12
CN(C)CC/C=C1/c2ccccc2Sc2ccc(Cl)cc21 [Chlorprothixene] | 0.94 | 0.98 | 0.73 | 0.63 | 0.86 | 1.04
CCn1cc(C(=O)O)c(=O)c2cc(F)c(N3CCN(C)CC3)cc21 [Pefloxacin Mesylate Dihydrate] | 0.77 | 0.9 | 0.86 | 0.88 | 1.03 | 0.81
CCC(=O)c1c(O)cc(O)cc1O [Flopropione] | 0.97 | 0.78 | 0.89 | 1.04 | 0.88 | 1.03
COc1cc(NC(C)CCCN)c2ncccc2c1 (stereo not given) [Primaquine Diphosphate] | 1.08 | 1 | 0.91 | 1 | 0.86 | 1.1
CO/N=C(\C(=O)N[C@@H]1C(=O)N2C(C(=O)O)=C(COC(C)=O)CS[C@H]12)c1csc(N)n1 [Cefotaxime sodium] | 1.11 | 0.97 | 1.11 | 0.96 | 1.17 | 1.12
CCCCCC(=O)O[C@]1(C(C)=O)CC[C@H]2[C@@H]3CCC4=CC(=O)CC[C@]4(C)[C@H]3CC[C@@]21C [Hydroxyprogesterone caproate] | 0.99 | 0.88 | 0.55 | 0.88 | 0.89 | 0.8
Nc1cccc2c1CN(C1CCC(=O)NC1=O)C2=O (stereo not given) [Lenalidomide (CC-5013)] | 0.75 | 0.53 | 0.6 | 0.92 | 0.8 | 0.76
CC[C@H]1OC(=O)[C@H](C)[C@@H](O[C@H]2C[C@@](C)(OC)[C@@H](O)[C@H](C)O2)[C@H](C)[C@@H](O[C@@H]2O[C@H](C)C[C@H](N(C)C)[C@H]2O)[C@](C)(O)C[C@@H](C)C(=O)[C@H](C)[C@H]2OC(=O)O[C@@]21C [Erythromycin Cyclocarbonate] | 0.94 | 0.9 | 0.88 | 0.9 | 0.95 | 1.11
COc1ccc2c(c1)c(CC(=O)O)c(C)n2C(=O)c1ccc(Cl)cc1 [Indomethacin] | 1.14 | 1.56 | 1.09 | 0.93 | 0.76 | 0.86
NC(=O)c1ncn([C@@H]2O[C@H](CO)[C@@H](O)[C@H]2O)c1N [AICAR (Acadesine)] | 1.01 | 0.85 | 1.01 | 0.96 | 0.97 | 1.02
CN1CC2c3ccccc3Oc3ccc(Cl)cc3C2C1 (stereo not given) [Asenapine maleate] | 0.98 | 0.59 | 0.82 | 1.17 | 1.03 | 0.83
COc1cc(Nc2ncc(F)c(Nc3ccc4c(n3)N(COP(=O)(O)O)C(=O)C(C)(C)O4)n2)cc(OC)c1OC [Fostamatinib (R788)] | 1.05 | 0.91 | 1.05 | 0.96 | 0.99 | 1.15
C=CC1=C(C(=O)O)N2C(=O)[C@@H](NC(=O)/C(=N\O)c3csc(N)n3)[C@H]2SC1 [Cefdinir] | 0.96 | 1.11 | 0.96 | 1.11 | 1.2 | 1.11
CS(=O)(=O)N1CCN(Cc2cc3nc(-c4cccc5[nH]ncc45)nc(N4CCOCC4)c3s2)CC1 [Pictilisib (GDC-0941)] | 0.9 | 0.99 | 0.94 | 0.83 | 0.82 | 0.83
CCN(CCCc1ccccc1)CCCc1ccccc1 [Alverine Citrate] | 0.95 | 0.96 | 0.77 | 1.39 | 0.89 | 1.09
CN(C)C(=O)c1cc2cnc(Nc3ccc(N4CCNCC4)cn3)nc2n1C1CCCC1 [Ribociclib (LEE011)] | 0.74 | 0.84 | 1.16 | 0.81 | 0.6 | 0.72
